# ± gives the standard deviation. The list shows a part of the results, in another mix than the full data. The uncertainty is large for many entries.
# Tested on: MIWI (PIWIL1) piRISC loaded with L1MC piRNA (30 nt)
# Test: pre-steady-state target cleavage rate (min^-1); MIWI and MILI are mouse PIWI proteins and EfPiwi is from a freshwater sponge; tags in brackets are library labels; higher = faster piRNA-guided slicing of the target
# Details: guide: L1MC piRNA 5'p-UAACUAAAUACUAUGCAAGCUGUAGGUCCU; auxiliary factor: none (no GTSF1)
# How it was run: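 A transcribed, DNA-blocked target RNA library […] was incubated at 33 °C for 0–8 or 0–960 min with 1 nM active affinity-purified piRISC carrying one synthetic guide, in HEPES–potassium acetate buffer with or without 500 nM GTSF1 partner protein. Uncleaved targets were then sequenced and normalised to depth and to weakly complementary targets. Data from three trials were pooled, with k3 capped at 0.0001 min^-1, and a burst-and-steady-state fit yielded the pre-steady-state cleavage rate.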
# 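Note: 1 nM active piRISC with 0.1 nM target library at 33 °C single turnover.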
row,Sequence,pre-steady-state target cleavage rate
1,UGGACCUACAGCUUGCAUAGAUAUUAGUAA,0.000833 ± 0.0067
2,UGGACCUACAGCUUGCAUAGUAUAAUGAAA,0.00204 ± 0.0034
3,UCCUGGAUGAGCUUGCAUAGUAUAAUCAAA [g8:g21:cont:t1A],0.00148 ± 0.0045
4,UCCACCUACAGGAAGCAUAGUAUUUAGUAA,0.00171 ± 0.0019
5,UGGACCUACAGCUUCGAUAGUAUUUAGAAA,0.00112 ± 0.0039
6,UCCACCUACAGCUUGCAAUCUAUUUACAAA,0.000351 ± 0.015
7,UCGACCUACAGCUUGCAUAGUUAAUAGUAA,0.00227 ± 0.0037
8,UCCUGGAUGUCGAUGCAUAGUAAUUACUUA,0.000428 ± 0.015
9,UCCACCUACAGCUUGCAUAUGUAUUUAGUUA,0.000726 ± 0.0086
10,UCCACCUACAGCUUGCAUAGCUAUUUAGUUA,0.00166 ± 0.0059
11,UCCACCUACAGGUUGCAUAGUAUUUUCAAA,0.000643 ± 0.0081
12,UCGACCUACAGCUUGCAUAGUAUAUAGAAA,0.00238 ± 0.0038
13,UGGACCUACAGCUUGCAGUAGUAUUUAGUUA,0.000705 ± 0.0069
14,UCCACCUACAGCUUGCAUUCAAUUUUCAAA,0.000214 ± 0.013
15,AGGACCUACAGCUUGCAUACAUUUUUCAAA,0.000535 ± 0.015
16,UCCACCUACAGCUUGCAUACAUUUUUCAAA,0.000209 ± 0.013
17,UGCUCCUACAGCUUGCAUAGUAUUUUCAAA,0.00263 ± 0.003
18,UGGACCUACAGCUAGCAUAGUAUUUUCAAA,0.00167 ± 0.0049
19,AGGACCUACAGCUUCGAUAGUAUUUACAAA,0.000703 ± 0.0094

row,Sequence,pre-steady-state target cleavage rate
1,UGGACCUACAGCUUGCAUAGUAAAUAGAAA,0.00116 ± 0.0046
2,UCCACCUACAGCUUGCAUAGUAAAAUCAAA,0.00034 ± 0.014
3,UCCACCAUCAGCUUGCAUAGUAUUUUCAAA,0.00202 ± 0.0034
4,UCGUGGUACAGCUUGCAUAGUAUUUUCAAA,0.00176 ± 0.0032
5,UCCACCUACAGCUUGCAAUCUAUUUAGUAA,0.00116 ± 0.0045
6,UGGACCUACAGCAAGCAUAGUAUUUAGAAA,0.000684 ± 0.0052
7,UCCUGGAUGUCGAACGAAAGUAUUAAGUUA,0.00017 ± 0.029
8,UCCACCUACAGCUUGCAUAGAAUUUUCAAA,0.000389 ± 0.0081
9,UCCACCUACUGCUUGCAUAGUAUUUUCAAA,0.00164 ± 0.0033
10,UCCUGGAUGUCGAAGCAUAGAUAUUAGUUA,0.000617 ± 0.011
11,UCCACCUACAGCUUCCAUAGUAUUUAGUAA,0.00145 ± 0.0044
12,UCCACCUACAGCUUGCAUAGUAAAUUCAAA,0.000298 ± 0.01
13,UCGACCUACAGCUUGGUAAGUAUUUAGUAA,0.000695 ± 0.0086
14,UCCACCUACAGCUUCCAUAGUAUUUACAAA,0.000374 ± 0.012
15,AGGACCUACAGCAACCAUAGUAUUUUCAAA,0.000189 ± 0.018
16,UCCACCUACAGCUUGCAAUGUAUUUAGAAA,0.00114 ± 0.0052
17,AGGACCUACAGCUUGCAAUGUAUUUUCAAA,0.000775 ± 0.0067
18,AGGACCUACAGCUUGGUAAGUAUUUAGUUA,0.00119 ± 0.0059
19,UCCUGGAUGUCGAACGAUAGUAUUUUCUUA,0.000163 ± 0.029

# In a second layout: results already given
row	Sequence	pre-steady-state target cleavage rate
2	UCCACCUACAGCUUGCAUAGUAAAAUCAAA	0.00034 ± 0.014
3	UCCACCAUCAGCUUGCAUAGUAUUUUCAAA	0.00202 ± 0.0034
